The values below come from patent publication US10822723.

Chains of the proteins cited; added tags and fusions are not shown. Residues count along the entry.
UniProt O96013, residues 286-591: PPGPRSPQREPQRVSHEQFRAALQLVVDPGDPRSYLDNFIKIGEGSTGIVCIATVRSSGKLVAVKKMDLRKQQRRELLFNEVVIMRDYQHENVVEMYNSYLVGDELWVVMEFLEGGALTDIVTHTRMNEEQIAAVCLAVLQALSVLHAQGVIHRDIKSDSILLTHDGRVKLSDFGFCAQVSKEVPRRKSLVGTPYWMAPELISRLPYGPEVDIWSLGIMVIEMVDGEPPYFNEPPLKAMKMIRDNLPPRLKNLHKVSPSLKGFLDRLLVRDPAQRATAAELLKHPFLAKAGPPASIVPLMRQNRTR

No constants are given. Whether binding was seen depends on the method and setting. Some binding calls cover weakened binding; strength is not graded here.

The assay concerns the target 6His-PAK4cat, recombinant catalytic domain of PAK4 (286-591) (human) (UniProt O96013). Briefly: in vitro co-crystallisation, X-ray structure.

B1: iBox 23mer synthetic peptide … (peptide)
peptide: AEDWTAALLNRGRSRQPLVLGDW
Regarding B1, the binding entry is “binds”.
